# From PubChem BioAssay (NCATS)
# This is one part of the list. Further columns of the screen follow, without active or inactive calls. Most of these compounds were active or inconclusive in the main read-out, so they are no random draw. The note in brackets gives the kind of curve behind each potency; many fits are weak.
# Test: qHTS for identification of novel therapeutic agents for treatment of microphthalmiaassociated transcription factor (MiT) renal cell carcinoma (RCC) (AID 1963991)
# Conditions: CellTiter-Glo, 48 h; for z-score: stronger effect = lower value
# Outline: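 Curves over 11 concentrations were fitted to CellTiter-Glo luminescence, scaled between empty wells (0%) and DMSO (100%) viability. Cells were UOK109, UOK124 and UOK145 TFE3-fusion RCC lines at 500/well, exposed 48 hours at 37 C.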
# [1] = TFE3-RCC UOK109 viability, measured here: UOK109 Z-AUC
# [2] = TFE3-RCC viability, measured here: UOK124 Z-AUC
# [3] = TFE3-RCC viability, measured here: UOK124 cell viability
# [4] = TFE3-RCC viability, measured here: UOK145 Z-AUC
# [5] = TFE3-RCC viability, measured here: UOK145 cell viability
smiles,measurement,setting,value
CC(=O)OCC(=O)[C@@]1(O)[C@H](C)C[C@H]2[C@@H]3C=C(C)C4=Cc5c(cnn5-c5ccccc5)C[C@]4(C)[C@@H]3[C@@H](O)C[C@@]21C,z-score,[1],-0.297
same,z-score,[2],0.349
same,AC50,[3],"10.5 µM [falling, partial curve]"
same,z-score,[4],-0.102
same,AC50,[5],"16.6 µM [falling, partial curve]"
CCCCCCCCCCCCCCCC(=O)O[C@H]1[C@@H](O)[C@@H](O)[C@@H]([C@H](NC(=O)[C@@H]2C[C@@H](CCC)CN2C)[C@H](C)Cl)O[C@@H]1SC,z-score,[1],0.654
same,z-score,[2],1.03
same,AC50,[3],"23.5 µM [falling, single point]"
same,z-score,[4],0.752
same,AC50,[5],"37.2 µM [falling, single point]"
Cc1cc(Nc2ncnc3ccc(-c4ccc(CNCCS(C)(=O)=O)o4)cc23)ccc1Oc1ccn2ncnc2c1,z-score,[1],-0.421
same,z-score,[2],-0.731
same,AC50,[3],"20.9 µM [falling, partial curve]"
same,z-score,[4],-0.251
same,AC50,[5],"18.7 µM [falling, partial curve]"
CNC(=O)c1ccc(Nc2cc(Nc3ccccc3S(=O)(=O)C(C)C)c3cc[nH]c3n2)nc1,z-score,[1],-0.0335
same,z-score,[2],-0.654
same,AC50,[3],"4.69 µM [falling, full curve]"
same,z-score,[4],-0.00623
same,AC50,[5],"18.7 µM [falling, partial curve]"
CCCCc1nc2cc(C=CC(=O)NO)ccc2n1CCN(CC)CC,z-score,[1],-1.08
same,z-score,[2],-1.42
same,AC50,[3],"3.32 µM [falling, partial curve]"
same,z-score,[4],-0.619
same,AC50,[5],"5.26 µM [falling, full curve]"
COc1ccc(-c2oc3cc(OC)ccc3c2C(=O)c2ccc(C#N)cc2)cc1,z-score,[1],0.345
same,z-score,[2],0.229
same,AC50,[3],"4.18 µM [falling, full curve, poor fit]"
same,z-score,[4],0.202
same,AC50,[5],"11.8 µM [falling, partial curve]"
CC(=O)NC(C)c1ccc(Oc2ccc(OC(C)C)cc2)cc1 (stereo not given),z-score,[1],0.698
same,z-score,[2],0.979
same,AC50,[3],"29.6 µM [falling, single point]"
same,z-score,[4],0.749
same,AC50,[5],"23.5 µM [falling, partial curve, poor fit]"
COc1ccc(CCN2CCN(CCCc3ccccc3)CC2)cc1OC,z-score,[1],0.347
same,z-score,[2],0.665
same,AC50,[3],"23.5 µM [falling, single point]"
same,z-score,[4],0.504
same,AC50,[5],"33.2 µM [falling, partial curve, poor fit]"
COc1cc(OC)cc(-c2ccc3ncc4ccc(=O)n(-c5ccc(N6CCNCC6)c(C(F)(F)F)c5)c4c3c2)c1,z-score,[1],-0.295
same,z-score,[2],-0.773
same,AC50,[3],"16.6 µM [falling, partial curve]"
same,z-score,[4],-1.09
same,AC50,[5],"8.33 µM [falling, partial curve]"
O=c1c(-c2ccc(O)cc2)coc2cc(OC3O[C@H](CO)[C@H](O)[C@H](O)[C@H]3O)cc(O)c12 (stereo not given in full),z-score,[1],0.649
same,z-score,[2],-0.0817
same,AC50,[3],"18.7 µM [falling, partial curve, poor fit]"
same,z-score,[4],-0.418
same,AC50,[5],"16.6 µM [falling, partial curve]"
Cc1cc(CS(=O)(=O)c2ccccc2)cc(OCc2ccc(CN3CCC[C@H]3CO)cc2)c1,z-score,[1],-0.173
same,z-score,[2],-1.44
same,AC50,[3],"33.2 µM [falling, partial curve, poor fit]"
same,z-score,[4],0.652
same,AC50,[5],"14.8 µM [falling, partial curve]"
CN[C@@H]1CN(c2ccc3c(=O)c(C(=O)O)cn(-c4nccs4)c3n2)C[C@@H]1OC,z-score,[1],0.759
same,z-score,[2],1.78
same,AC50,[3],"2.04 µM [falling, partial curve]"
same,z-score,[4],0.984
same,AC50,[5],"12.9 µM [falling, partial curve]"
CN(C1CCc2c(c3ccccc3n2CC(=O)O)C1)S(=O)(=O)c1ccc(F)cc1 (stereo not given),z-score,[1],-0.494
same,z-score,[2],0.607
same,AC50,[3],"10.5 µM [falling, partial curve, poor fit]"
same,z-score,[4],-0.142
same,AC50,[5],"1.87 µM [falling, full curve]"
Cc1ccc(NC(=O)Nc2cc(C(F)(F)F)ccc2F)cc1Nc1ccc2c(c1)NC(=O)C2=Cc1ccc[nH]1,z-score,[1],0.37
same,z-score,[2],-0.242
same,AC50,[3],"20.9 µM [falling, partial curve]"
same,z-score,[4],-0.23
same,AC50,[5],"20.9 µM [falling, partial curve]"
CCOC(=O)C1=C(N)Oc2ccc(Br)cc2C1C(C#N)C(=O)OCC (stereo not given),z-score,[1],0.985
same,z-score,[2],0.0868
same,AC50,[3],"23.5 µM [falling, partial curve]"
same,z-score,[4],0.714
same,AC50,[5],"20.9 µM [falling, partial curve, poor fit]"

# 14 consecutive records out of the list so far, for reference:
smiles,measurement,setting,value
CN[C@@H]1CN(c2ccc3c(=O)c(C(=O)O)cn(-c4nccs4)c3n2)C[C@@H]1OC,z-score,[1],0.759
same,z-score,[2],1.78
same,AC50,[3],"2.04 µM [falling, partial curve]"
same,z-score,[4],0.984
same,AC50,[5],"12.9 µM [falling, partial curve]"
CN(C1CCc2c(c3ccccc3n2CC(=O)O)C1)S(=O)(=O)c1ccc(F)cc1 (stereo not given),z-score,[1],-0.494
same,z-score,[2],0.607
same,AC50,[3],"10.5 µM [falling, partial curve, poor fit]"
same,z-score,[4],-0.142
same,AC50,[5],"1.87 µM [falling, full curve]"
Cc1ccc(NC(=O)Nc2cc(C(F)(F)F)ccc2F)cc1Nc1ccc2c(c1)NC(=O)C2=Cc1ccc[nH]1,z-score,[1],0.37
same,z-score,[2],-0.242
same,AC50,[3],"20.9 µM [falling, partial curve]"
same,z-score,[4],-0.23
